From paper doi:10.1101/2022.01.26.477835 come the findings set out here.

Sequences of proteins named here, by UniProt entry; tags and fusion partners are left off. A change or cut given only in a name is not applied to a line headed by its entry. A line that says so, or that is headed by a name, gives the form on record, which may keep a tag or linker. Residues count along the entry.
UniProt Q8R455: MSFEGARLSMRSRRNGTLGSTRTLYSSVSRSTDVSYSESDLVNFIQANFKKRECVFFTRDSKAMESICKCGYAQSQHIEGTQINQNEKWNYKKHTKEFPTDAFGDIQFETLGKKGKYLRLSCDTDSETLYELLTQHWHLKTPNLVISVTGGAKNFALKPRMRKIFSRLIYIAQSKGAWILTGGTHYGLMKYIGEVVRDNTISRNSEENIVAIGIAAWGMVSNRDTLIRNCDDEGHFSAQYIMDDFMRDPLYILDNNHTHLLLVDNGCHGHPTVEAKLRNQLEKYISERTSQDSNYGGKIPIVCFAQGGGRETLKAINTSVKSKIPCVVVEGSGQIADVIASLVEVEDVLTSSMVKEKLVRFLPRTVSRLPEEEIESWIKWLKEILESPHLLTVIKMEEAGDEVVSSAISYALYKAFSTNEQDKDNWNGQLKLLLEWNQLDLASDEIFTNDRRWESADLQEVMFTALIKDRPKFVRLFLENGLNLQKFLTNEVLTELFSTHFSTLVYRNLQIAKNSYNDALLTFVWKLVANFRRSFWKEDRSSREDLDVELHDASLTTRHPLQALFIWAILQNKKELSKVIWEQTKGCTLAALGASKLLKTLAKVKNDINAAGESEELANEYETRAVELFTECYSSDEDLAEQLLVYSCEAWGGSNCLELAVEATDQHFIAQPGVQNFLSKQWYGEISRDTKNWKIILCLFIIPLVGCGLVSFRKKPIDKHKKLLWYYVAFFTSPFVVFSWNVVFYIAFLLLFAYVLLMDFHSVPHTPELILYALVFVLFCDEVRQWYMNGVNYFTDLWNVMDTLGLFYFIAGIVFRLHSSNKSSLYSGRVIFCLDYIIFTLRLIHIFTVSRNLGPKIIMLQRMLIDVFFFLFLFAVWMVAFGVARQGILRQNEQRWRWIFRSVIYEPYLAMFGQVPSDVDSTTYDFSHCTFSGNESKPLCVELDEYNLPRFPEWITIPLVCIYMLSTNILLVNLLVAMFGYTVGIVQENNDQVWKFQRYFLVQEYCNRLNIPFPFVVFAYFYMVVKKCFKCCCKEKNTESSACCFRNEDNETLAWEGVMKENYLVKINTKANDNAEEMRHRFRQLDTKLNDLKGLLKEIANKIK
GST-tagged C-terminus of TRPM8 (GST-M8C): residues 980-1104 of Q8R455
UniProt P63104: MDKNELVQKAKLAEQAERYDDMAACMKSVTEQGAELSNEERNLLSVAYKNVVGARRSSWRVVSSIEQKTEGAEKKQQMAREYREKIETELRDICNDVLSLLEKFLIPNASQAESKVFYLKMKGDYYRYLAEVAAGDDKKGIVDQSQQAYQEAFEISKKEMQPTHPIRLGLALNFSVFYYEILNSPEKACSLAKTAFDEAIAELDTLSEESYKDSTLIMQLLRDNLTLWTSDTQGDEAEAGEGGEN
UniProt P51451: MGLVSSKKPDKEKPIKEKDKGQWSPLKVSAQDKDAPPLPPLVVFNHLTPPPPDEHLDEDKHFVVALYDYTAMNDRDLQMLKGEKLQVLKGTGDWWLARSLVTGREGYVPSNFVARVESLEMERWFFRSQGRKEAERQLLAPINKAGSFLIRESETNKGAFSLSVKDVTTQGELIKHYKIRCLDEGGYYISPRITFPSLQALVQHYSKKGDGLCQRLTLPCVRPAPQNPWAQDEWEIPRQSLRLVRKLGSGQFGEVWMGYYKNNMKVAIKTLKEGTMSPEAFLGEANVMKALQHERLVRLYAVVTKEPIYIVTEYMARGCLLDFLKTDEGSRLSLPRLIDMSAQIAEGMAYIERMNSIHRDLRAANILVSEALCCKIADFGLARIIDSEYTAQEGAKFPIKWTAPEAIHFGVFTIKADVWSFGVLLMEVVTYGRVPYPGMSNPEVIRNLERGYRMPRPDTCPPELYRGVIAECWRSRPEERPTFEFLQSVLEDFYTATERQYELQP
UniProt P06239: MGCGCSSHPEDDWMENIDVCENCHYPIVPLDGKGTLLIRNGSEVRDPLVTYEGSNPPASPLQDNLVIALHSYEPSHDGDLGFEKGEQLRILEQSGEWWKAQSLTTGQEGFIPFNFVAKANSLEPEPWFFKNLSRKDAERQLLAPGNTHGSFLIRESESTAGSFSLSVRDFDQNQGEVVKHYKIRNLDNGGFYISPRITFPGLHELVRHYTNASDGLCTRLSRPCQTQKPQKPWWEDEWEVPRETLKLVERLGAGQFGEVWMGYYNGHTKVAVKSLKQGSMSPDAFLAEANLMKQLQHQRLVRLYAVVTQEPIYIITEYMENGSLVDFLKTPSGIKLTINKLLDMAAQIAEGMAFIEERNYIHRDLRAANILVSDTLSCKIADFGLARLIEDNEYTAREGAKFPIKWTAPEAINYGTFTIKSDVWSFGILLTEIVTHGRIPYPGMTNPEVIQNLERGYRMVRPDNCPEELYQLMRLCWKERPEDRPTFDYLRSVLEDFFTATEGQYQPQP

Test [1] addresses GST-tagged C-terminus of TRPM8 (GST-M8C) (rat) (UniProt Q8R455). The test can be described thus: affinity purification with mass spectrometry.
In test [2] the target is Flag-tagged full-length TRPM8 (Flag-TRPM8) (rat) (UniProt Q8R455). The test is described as follows: affinity purification with mass spectrometry.

These are yes or no findings as the source states them, for the method shown. In cells and extracts the contact can be indirect. Here binding means that the protein was enriched with, or labelled near, the bait; the list need not be complete.

On to “14-3-3ζ (endogenous) (from UniProt P63104 1-245)”, for which the binding entry in test [1] is recorded as “binds”.

Turning to “BLK (endogenous) (from UniProt P51451 1-505) (enzyme)”, the binding result in test [2] is listed as “binds”.

For the substance “LCK (endogenous) (from UniProt P06239 1-509) (enzyme)”, the binding result in test [2] is “binds”.
